The full ranking holds about 1,100 compounds; the median of “Wnt reporter firefly/Renilla luciferase ratio relative to plate median” is about 1.1, and the highest 2% start at about 1.6. This is a selection; strong and weak results do not stand in their true shares.
System: HEK293T (UBE3A T485A transfected, BAR Wnt reporter)
Test: Wnt reporter firefly/Renilla luciferase ratio relative to plate median (fold (linear ratio)); higher = more Wnt/beta-catenin reporter activation
Conditions: 24 h
How it was run: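 HEK293T cells carrying a transfected BAR firefly luciferase Wnt reporter, TK-Renilla and an expression plasmid were exposed to chemicals at 0.01–100 uM for 24 h, with dosing four hours after transfection. Readout used Dual-Glo luciferase. The firefly/Renilla ratio defined Wnt activity and raw Renilla defined cell health, each median-centred per plate. Figures are means of four biological replicates.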

Compound | Wnt reporter firefly/Renilla luciferase ratio (concentration: 0.1 uM) | Wnt reporter firefly/Renilla luciferase ratio (concentration: 1 uM) | Wnt reporter firefly/Renilla luciferase ratio (concentration: 10 uM) | Wnt reporter firefly/Renilla luciferase ratio (concentration: 100 uM) | Wnt reporter firefly/Renilla luciferase ratio (concentration: 0.01 uM)
C[N+](C)(C)CC1CO1.[Cl-] (stereo not drawn) [N,N,N-Trimethyl(oxiran-2-yl)methanaminium chloride] | 1.01 | 0.868 | 0.986 | 1.09 | 
O=C1c2ccccc2C(=O)N1SC(Cl)(Cl)Cl [Folpet] | 1.49 | 1.05 | 1.32 |  | 1.22
COC(=O)c1ccccc1N [Methyl 2-aminobenzoate] | 1.23 | 1.02 | 1.1 | 1.31 | 
Clc1ccc(C(c2ccc(Cl)cc2)C(Cl)Cl)cc1 | 0.983 | 0.999 | 0.984 | 1.16 | 
COc1nc(NC(C)C)nc(NC(C)C)n1 [Prometon] | 0.926 | 0.714 | 0.868 | 0.852 | 0.425
O=C(Nc1ccccc1)c1ccccc1I [Benodanil] | 1.01 | 0.967 | 1.06 | 0.746 | 
CC(C)N(Cc1ccccc1)C(=O)C(C)(C)C [Butam] | 1.15 | 0.958 | 1.06 | 0.891 | 
ClC1=C(Cl)C(Cl)(Cl)C(Cl)=C1Cl [Hexachlorocyclopentadiene] | 1.24 | 0.958 | 1.02 | 0.638 | 
Cc1cccc(N)c1 [3-Methylaniline] | 0.716 | 0.904 | 0.784 | 1.19 | 
CCOP(=S)(Oc1cnc(C(C)(C)C)nc1)OC(C)C (stereo not drawn) [Tebupirimfos] | 0.858 | 1.02 | 0.965 | 1.03 | 0.786
COCc1cnc(C2=NC(C)(C(C)C)C(=O)N2)c(C(=O)O)c1 (stereo not drawn) [Imazamox] | 1.07 | 0.743 | 1.21 | 1.14 | 1.07
CCOP(=S)(OCC)Oc1ccc([N+](=O)[O-])cc1 [Parathion] | 1.45 | 1.28 | 1.44 | 1.3 | 1.18
N#Cc1c(Cl)cccc1Cl [Dichlobenil] | 1.42 | 1.16 | 0.907 | 1.29 | 1.31
OCCN(CCO)CCO [Triethanolamine] | 1.25 | 1.19 | 1.02 | 0.749 | 
CC(C)NC(=O)N1CC(=O)N(c2cc(Cl)cc(Cl)c2)C1=O [Iprodione] | 1.33 | 1.06 | 1.06 | 0.922 | 1.18
CCCCOC(=O)[C@@H](C)Oc1ccc(Oc2ccc(C#N)cc2F)cc1 [Cyhalofop-butyl] | 0.959 | 1.06 | 0.848 | 0.697 | 1.1
CC1(C)C(C(=O)OC(C#N)c2cccc(Oc3ccccc3)c2)C1(C)C (stereo not drawn) [Fenpropathrin] | 1.23 | 1.04 | 1.04 | 0.149 | 1.05
CCOP(=S)(OCC)SCCSCC [Disulfoton] | 1.2 | 1.3 | 1.19 | 1.43 | 1.38
CN/C(=N\[N+](=O)[O-])NCc1cnc(Cl)s1 [Clothianidin] | 1.2 | 0.922 | 0.951 | 1.07 | 1.34
CC(C)(C)C(=O)C(Oc1ccc(Cl)cc1)n1cncn1 (stereo not drawn) [Triadimefon] | 1.34 | 1.3 | 1.2 | 0.483 | 1
Oc1c(Cl)cc(Cl)cc1Cl [2,4,6-Trichlorophenol] | 0.821 | 1.09 | 1.37 | 0.524 | 

Compound | Wnt reporter firefly/Renilla luciferase ratio (concentration: 0.1 uM) | Wnt reporter firefly/Renilla luciferase ratio (concentration: 1 uM) | Wnt reporter firefly/Renilla luciferase ratio (concentration: 10 uM) | Wnt reporter firefly/Renilla luciferase ratio (concentration: 100 uM) | Wnt reporter firefly/Renilla luciferase ratio (concentration: 0.01 uM)
O=C(O)C(F)(F)C(F)(F)C(F)(F)C(F)(F)C(F)(F)F | 1.16 | 1.48 | 1.38 | 2.14 | 
CO[C@@H]1[C@H](OC(=O)NC(=O)CCl)CC[C@]2(CO2)[C@H]1[C@@]1(C)O[C@@H]1CC=C(C)C | 0.85 | 0.74 | 0.545 | 0.281 | 
OC(c1ccc(Cl)cc1)(c1cncnc1)c1ccccc1Cl (stereo not drawn) [Fenarimol] | 0.819 | 1.18 | 1.13 | 0.347 | 0.885
COP(=O)(OC)SCn1c(=O)oc2cc(Cl)cnc21 [Azamethiphos] | 1.28 | 0.979 | 0.625 | 0.373 | 0.825
Cc1cc(C)nc(Nc2ccccc2)n1 [Pyrimethanil] | 0.979 | 0.894 | 1.13 | 1.14 | 0.991
CCN(CC)C(=O)C(C)Oc1cccc2ccccc12 (stereo not drawn) [Napropamide] | 1.3 | 0.968 | 0.96 | 0.438 | 1.25
O=S(=O)([O-])C(F)(F)C(F)(F)C(F)(F)C(F)(F)F.[K+] | 1.15 | 1.04 | 1.23 | 1.73 | 
COP(=O)(OC)OC(Br)C(Cl)(Cl)Br (stereo not drawn) [Naled] | 0.717 | 0.934 | 0.744 |  | 0.688
CC(C)N1C(=O)N(c2ccccc2)CSC1=NC(C)(C)C [Buprofezin] | 1.69 | 1.16 | 1.12 | 0.27 | 1.25
CC(C)(C)OOC(C)(C)CCC(C)(C)OOC(C)(C)C [2,5-Dimethyl-2,5-di-(tert-butylperoxy)hexane] | 1.05 | 0.821 | 1.06 | 1.31 | 
CC(C)=CC1C(C(=O)OCc2coc(Cc3ccccc3)c2)C1(C)C (stereo not drawn) [Resmethrin] | 1.07 | 1.19 | 1.16 | 0.31 | 1.06
CCOC(=O)C(O)(c1ccc(Cl)cc1)c1ccc(Cl)cc1 [Chlorobenzilate] | 1.14 | 1.09 | 1.05 | 1.09 | 
COC(=O)NC(=S)Nc1ccccc1NC(=S)NC(=O)OC [Thiophanate-methyl] | 1.42 | 1.19 | 1.34 | 0.693 | 1.2
CCCCN(CC)c1c([N+](=O)[O-])cc(C(F)(F)F)cc1[N+](=O)[O-] [Benfluralin] | 1.31 | 0.932 | 1.08 | 1.13 | 0.944
O=C1C2(Cl)C3(Cl)C4(Cl)C(Cl)(Cl)C5(Cl)C3(Cl)C1(Cl)C5(Cl)C24Cl (stereo not drawn) [Kepone] | 1.34 | 1.09 | 0.965 | 1.01 | 
CC(Oc1ccc(Cl)cc1Cl)C(=O)O (stereo not drawn) [Dichlorprop] | 1.21 | 1.22 | 1.24 | 1.32 | 1.16
CCNc1nc(Cl)nc(NC(C)(C)C#N)n1 [Cyanazine] | 0.905 | 0.962 | 0.88 | 1.15 | 0.787
O=C(O)COc1ccc(Cl)cc1Cl [2,4-Dichlorophenoxyacetic acid] | 1.37 | 1.1 | 1.22 | 1.12 | 0.912
O=C([O-])C(F)(F)C(F)(F)C(F)(F)C(F)(F)C(F)(F)C(F)(F)C(F)(F)F.[NH4+] [PFOA, ammonium salt] | 1.07 | 0.855 | 1.06 | 0.439 | 
Cc1ccc(N)cc1 [4-Methylaniline] |  |  |  | 1.79 | 
CC1(C(=O)Nc2ccc(O)c(Cl)c2Cl)CCCCC1 [Fenhexamid] | 1.11 | 1.06 | 1.23 | 0.352 | 0.803

As entered above.
Wnt reporter firefly/Renilla luciferase ratio (concentration: 0.01 uM), `O=C(O)COc1ccc(Cl)cc1Cl` [2,4-Dichlorophenoxyacetic acid] is entered as 0.912
Wnt reporter firefly/Renilla luciferase ratio (concentration: 100 uM), `OC(c1ccc(Cl)cc1)(c1cncnc1)c1ccccc1Cl` (stereo not drawn) [Fenarimol] is entered as 0.347
Wnt reporter firefly/Renilla luciferase ratio (concentration: 100 uM), `Cc1ccc(N)cc1` [4-Methylaniline] is entered as 1.79
Wnt reporter firefly/Renilla luciferase ratio (concentration: 0.01 uM), `CC(C)=CC1C(C(=O)OCc2coc(Cc3ccccc3)c2)C1(C)C` (stereo not drawn) [Resmethrin] is entered as 1.06
Wnt reporter firefly/Renilla luciferase ratio (concentration: 10 uM), `CCN(CC)C(=O)C(C)Oc1cccc2ccccc12` (stereo not drawn) [Napropamide] is entered as 0.96
Wnt reporter firefly/Renilla luciferase ratio (concentration: 100 uM), `OCCN(CCO)CCO` [Triethanolamine] is entered as 0.749

Additional structures

Compound | Wnt reporter firefly/Renilla luciferase ratio (concentration: 0.1 uM) | Wnt reporter firefly/Renilla luciferase ratio (concentration: 1 uM) | Wnt reporter firefly/Renilla luciferase ratio (concentration: 10 uM) | Wnt reporter firefly/Renilla luciferase ratio (concentration: 100 uM) | Wnt reporter firefly/Renilla luciferase ratio (concentration: 0.01 uM)
COc1ccccc1N [2-Anisidine] | 1.26 | 1.2 | 1.42 | 1.19 | 
O=C(NC(=O)c1c(F)cccc1F)Nc1ccc(OC(F)(F)C(F)OC(F)(F)F)c(Cl)c1 (stereo not drawn) [Novaluron] | 0.973 | 1.04 | 1.02 | 0.941 | 1.04
O=P(Oc1ccccc1)(Oc1ccccc1)Oc1ccccc1 [Triphenyl phosphate] | 1.21 | 1.17 | 1.2 | 1.06 | 
CCCCCCCCOC(=O)c1ccc(C(=O)OCCCCCCCC)c(C(=O)OCCCCCCCC)c1 [Trioctyl trimellitate] | 1.11 | 1.01 | 1.06 | 1.57 | 
CCCCN(CCCC)SN(C)C(=O)Oc1cccc2c1OC(C)(C)C2 [Carbosulfan] | 1.07 | 1.13 | 1.07 | 1.28 | 
N#CC(Br)Br [Dibromoacetonitrile] | 1.15 | 1.01 | 1.17 | 1.19 | 
CCOP(=O)(SC(C)CC)N1CCSC1=O (stereo not drawn) [Fosthiazate] | 0.761 | 0.922 | 1.5 | 0.772 | 0.839
CCSC(=O)N1CCCCCC1 [Molinate] | 1.49 | 1.13 | 0.973 | 1.18 | 1.29
CC(C)(C)C(O)C(Oc1ccc(Cl)cc1)n1cncn1 (stereo not drawn) [Triadimenol] | 1.01 | 1.09 | 0.935 | 0.403 | 0.889
CC(C)[C@H](C(=O)O[C@H](C#N)c1cccc(Oc2ccccc2)c1)c1ccc(Cl)cc1 [Esfenvalerate] | 0.96 | 1.13 | 1.12 | 0.54 | 1.08
CS(=O)(=O)NC(=O)c1cc(Oc2ccc(C(F)(F)F)cc2Cl)ccc1[N+](=O)[O-] [Fomesafen] | 1.07 | 1.19 | 1.15 | 0.896 | 
Clc1ccccc1Cl [1,2-Dichlorobenzene] | 0.904 | 1.01 | 0.88 | 1.62 | 
COc1cc(Cl)c(OC)cc1Cl [Chloroneb] | 1.33 | 1.12 | 1.01 | 1.54 | 0.936
COc1cc(OC)nc(Sc2cccc(Cl)c2C(=O)[O-])n1.[Na+] [Pyrithiobac-sodium] | 1.11 | 1.11 | 1.25 | 1.32 | 1.46
CC#Cc1cc(C)nc(Nc2ccccc2)n1 [Mepanipyrim] | 1.04 | 1.06 | 1.12 | 0.702 | 
CCOC(=O)CC(SP(=O)(OC)OC)C(=O)OCC (stereo not drawn) [Malaoxon] | 0.981 | 1.07 | 1.22 | 1.22 | 1.22
CC(C)(C)c1ccc(CSc2cnn(C(C)(C)C)c(=O)c2Cl)cc1 [Pyridaben] | 0.978 | 0.29 | 0.305 | 0.218 | 1.21
O=[N+]([O-])c1ccc(Oc2ccc(Cl)cc2Cl)cc1 [Nitrofen] | 1.04 | 0.882 | 1.01 | 1.28 | 
Cc1cc(O)ccc1Cl [4-Chloro-3-methylphenol] | 0.988 | 0.799 | 0.778 | 0.698 | 
CCOP(=S)(OCC)OC(Cl)C(Cl)(Cl)Cl (stereo not drawn) [Chlorethoxyfos] | 1.35 | 1.17 | 1.02 | 1.11 | 1.08
